These results are taken from PMC3261171.

By UniProt entry, the sequences of proteins in these tests, tags left out.
UniProt Q96Q05: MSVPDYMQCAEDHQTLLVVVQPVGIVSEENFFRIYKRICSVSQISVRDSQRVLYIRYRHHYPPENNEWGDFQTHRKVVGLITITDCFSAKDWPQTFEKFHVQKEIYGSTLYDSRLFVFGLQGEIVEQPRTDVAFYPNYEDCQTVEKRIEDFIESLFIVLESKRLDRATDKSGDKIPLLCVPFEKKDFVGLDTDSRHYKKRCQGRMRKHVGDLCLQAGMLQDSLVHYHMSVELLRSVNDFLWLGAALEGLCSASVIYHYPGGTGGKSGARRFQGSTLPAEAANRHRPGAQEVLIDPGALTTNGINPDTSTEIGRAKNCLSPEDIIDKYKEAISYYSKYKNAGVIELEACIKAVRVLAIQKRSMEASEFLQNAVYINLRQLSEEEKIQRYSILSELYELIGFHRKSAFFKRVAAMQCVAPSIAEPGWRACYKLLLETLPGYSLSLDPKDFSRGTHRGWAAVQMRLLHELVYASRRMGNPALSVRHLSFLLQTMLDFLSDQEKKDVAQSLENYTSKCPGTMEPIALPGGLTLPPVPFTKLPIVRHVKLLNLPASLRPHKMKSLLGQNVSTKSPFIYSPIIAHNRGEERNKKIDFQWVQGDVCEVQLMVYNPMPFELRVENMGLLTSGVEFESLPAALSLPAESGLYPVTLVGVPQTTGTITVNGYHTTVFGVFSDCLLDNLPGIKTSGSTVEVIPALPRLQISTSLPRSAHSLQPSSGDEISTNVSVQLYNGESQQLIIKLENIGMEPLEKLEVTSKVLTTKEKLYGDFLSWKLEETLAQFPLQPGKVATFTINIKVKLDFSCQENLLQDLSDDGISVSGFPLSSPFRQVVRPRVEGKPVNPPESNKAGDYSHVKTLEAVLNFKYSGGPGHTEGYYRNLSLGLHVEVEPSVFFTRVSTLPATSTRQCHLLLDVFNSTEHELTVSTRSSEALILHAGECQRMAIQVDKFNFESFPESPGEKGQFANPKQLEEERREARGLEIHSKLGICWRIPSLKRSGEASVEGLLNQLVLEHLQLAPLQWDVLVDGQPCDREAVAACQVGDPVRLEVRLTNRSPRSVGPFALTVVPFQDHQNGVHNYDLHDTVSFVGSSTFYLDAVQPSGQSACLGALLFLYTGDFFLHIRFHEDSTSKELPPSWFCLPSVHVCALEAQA

Experiment [1] deals with endogenous TRAPPC9 (human cells) (human (endogenous in HEK293 and Caco-2)) (UniProt Q96Q05). Nature of the experiment: co-IP; native immunoprecipitation of endogenous proteins from lysate of about 2x10^7 HEK293 cells with antibody against TRAPPC9 (anti-LAMP2 as negative control); immunoblotting. On the technique in general: Immunoblotting shows a protein as a band on a membrane.

Experiment [2] has the same target. The experiment is described as follows: co-IP; similar co-IP with lysates from Caco-2 and CHO cells; data not shown.

Results are given in words; binding and its absence hold for the method and conditions named. In cells and extracts the contact can be indirect. Some results given as binding are weak or reduced against the parent protein; the word gives no strength.

For “endogenous p150^Glued (human cells) (from UniProt Q14203-1 1-1278)”, the binding entry in experiment [1] and in experiment [2] was “binds” in each case.

B1: Golgin-97 (protein, UniProt Q92805 1-767)
chain: MFAKLKKKIAEETAVAQRPGGATRIPRSVSKESVASMGADSGDDFASDGSSSREDLSSQLLRRNEQIRKLEARLSDYAEQVRNLQKIKEKLEIALEKHQDSSMRKFQEQNETFQANRAKMAEGLALALARKDQEWSEKMDQLEKEKNILTAQLQEMKNQSMNLFQRRDEMDELEGFQQQELSKIKHMLLKKEESLGKMEQELEARTRELSRTQEELMNSNQMSSDLSQKLEELQRHYSTLEEQRDHVIASKTGAESKITALEQKEQELQALIQQLSIDLQKVTAETQEKEDVITHLQEKVASLEKRLEQNLSGEEHLQELLKEKTLAEQNLEDTRQQLLAARSSQAKAINTLETRVRELEQTLQASEEQLQQSKGIVAAQETQIQELAAANQESSHVQQQALALEQQFLERTQALEAQIVALERTRAADQTTAEQGMRQLEQENAALKECRNEYERSLQNHQFELKKLKEEWSQREIVSVAMAQALEEVRKQREEFQQQAANLTAIIDEKEQNLREKTEVLLQKEQEILQLERGHNSALLQIHQLQAELEALRTLKAEEAAVVAEQEDLLRLRGPLQAEALSVNESHVTSRAMQDPVFQLPTAGRTPNGEVGAMDLTQLQKEKQDLEQQLLEKNKTIKQMQQRMLELRKTLQKELKIRPDNELFEVREKPGPEMANMAPSVTNNTDLTDAREINFEYLKHVVLKFMSCRESEAFHLIKAVSVLLNFSQEEENMLKETLEYKMSWFGSKPAPKGSIRPSISNPRIPWS
B1: the binding entry in experiment [1] is “no binding”.
